In paper doi:10.1101/2023.07.25.550414:
These are yes or no findings as the source states them, for the method shown. For some assays here: In cells and extracts the contact can be indirect. Some results given as binding are weak or reduced against the parent protein; the word gives no strength. Where a sequence is shown, tags or fusion partners need not be part of it.

T1: GAL4-DNA binding domain-DBR1 fusion (RNA DEBRANCHING ENZYME 1) (Arabidopsis thaliana) (UniProt Q94K01)
T1 sequence: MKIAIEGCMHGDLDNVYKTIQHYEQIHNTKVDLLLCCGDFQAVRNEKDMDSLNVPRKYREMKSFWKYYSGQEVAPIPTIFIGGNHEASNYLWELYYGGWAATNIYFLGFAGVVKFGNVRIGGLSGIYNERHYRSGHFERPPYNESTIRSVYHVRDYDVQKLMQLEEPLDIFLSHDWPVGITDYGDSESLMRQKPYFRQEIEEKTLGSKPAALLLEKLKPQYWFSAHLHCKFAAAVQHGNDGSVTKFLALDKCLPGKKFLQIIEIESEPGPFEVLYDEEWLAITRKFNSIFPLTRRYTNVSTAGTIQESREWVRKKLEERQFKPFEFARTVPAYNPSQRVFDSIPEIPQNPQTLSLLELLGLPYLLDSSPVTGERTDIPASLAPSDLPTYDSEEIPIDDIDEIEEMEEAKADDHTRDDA

T2: HA-epitope tagged SIC (Arabidopsis thaliana) (UniProt Q9SB47)
T2 sequence: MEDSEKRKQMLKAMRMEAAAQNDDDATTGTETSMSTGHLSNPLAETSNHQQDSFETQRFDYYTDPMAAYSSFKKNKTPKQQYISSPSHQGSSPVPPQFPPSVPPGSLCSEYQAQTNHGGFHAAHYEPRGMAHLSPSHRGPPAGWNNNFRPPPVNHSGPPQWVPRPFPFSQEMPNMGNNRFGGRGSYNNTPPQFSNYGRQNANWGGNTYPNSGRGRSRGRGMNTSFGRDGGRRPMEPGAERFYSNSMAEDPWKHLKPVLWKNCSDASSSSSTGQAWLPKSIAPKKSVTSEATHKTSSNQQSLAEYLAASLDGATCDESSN


Assays:
[1] = molecular target: T1, GAL4-DNA binding domain-DBR1 fusion (RNA DEBRANCHING ENZYME 1) (Arabidopsis thaliana); assay: two-hybrid
[2] = molecular target: T2, HA-epitope tagged SIC (Arabidopsis thaliana); assay: co-IP

Row | binding [1] | binding [2] | Binder
1 | binds |  | GAL4 Activation Domain-SIC fusion (SICKLE) (protein, UniProt Q9SB47 1-319) MEDSEKRKQMLKAMRMEAAAQNDDDATTGTETSMSTGHLSNPLAETSNHQQDSFETQRFDYYTDPMAAYSSFKKNKTPKQQYISSPSHQGSSPVPPQFPPSVPPGSLCSEYQAQTNHGGFHAAHYEPRGMAHLSPSHRGPPAGWNNNFRPPPVNHSGPPQWVPRPFPFSQEMPNMGNNRFGGRGSYNNTPPQFSNYGRQNANWGGNTYPNSGRGRSRGRGMNTSFGRDGGRRPMEPGAERFYSNSMAEDPWKHLKPVLWKNCSDASSSSSTGQAWLPKSIAPKKSVTSEATHKTSSNQQSLAEYLAASLDGATCDESSN
2 |  | binds | cMyc-epitope tagged DBR1 (enzyme, UniProt Q94K01 1-418) MKIAIEGCMHGDLDNVYKTIQHYEQIHNTKVDLLLCCGDFQAVRNEKDMDSLNVPRKYREMKSFWKYYSGQEVAPIPTIFIGGNHEASNYLWELYYGGWAATNIYFLGFAGVVKFGNVRIGGLSGIYNERHYRSGHFERPPYNESTIRSVYHVRDYDVQKLMQLEEPLDIFLSHDWPVGITDYGDSESLMRQKPYFRQEIEEKTLGSKPAALLLEKLKPQYWFSAHLHCKFAAAVQHGNDGSVTKFLALDKCLPGKKFLQIIEIESEPGPFEVLYDEEWLAITRKFNSIFPLTRRYTNVSTAGTIQESREWVRKKLEERQFKPFEFARTVPAYNPSQRVFDSIPEIPQNPQTLSLLELLGLPYLLDSSPVTGERTDIPASLAPSDLPTYDSEEIPIDDIDEIEEMEEAKADDHTRDDA
